Data on 5 molecules can be found in paper PMC5643558.

The chains behind the UniProt entries cited, without tags or fusion partners.
UniProt P19474: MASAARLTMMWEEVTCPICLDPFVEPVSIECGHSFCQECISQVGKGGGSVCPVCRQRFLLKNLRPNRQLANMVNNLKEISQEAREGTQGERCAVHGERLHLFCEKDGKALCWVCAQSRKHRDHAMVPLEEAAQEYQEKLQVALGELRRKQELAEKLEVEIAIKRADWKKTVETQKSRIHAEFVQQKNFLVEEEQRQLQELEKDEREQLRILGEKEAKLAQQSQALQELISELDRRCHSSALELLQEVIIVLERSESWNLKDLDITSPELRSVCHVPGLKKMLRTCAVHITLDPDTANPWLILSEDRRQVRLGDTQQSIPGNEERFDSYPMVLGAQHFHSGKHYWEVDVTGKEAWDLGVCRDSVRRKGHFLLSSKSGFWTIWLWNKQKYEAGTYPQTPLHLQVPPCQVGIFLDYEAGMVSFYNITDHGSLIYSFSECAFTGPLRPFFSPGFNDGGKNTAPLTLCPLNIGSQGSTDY
UniProt P31749: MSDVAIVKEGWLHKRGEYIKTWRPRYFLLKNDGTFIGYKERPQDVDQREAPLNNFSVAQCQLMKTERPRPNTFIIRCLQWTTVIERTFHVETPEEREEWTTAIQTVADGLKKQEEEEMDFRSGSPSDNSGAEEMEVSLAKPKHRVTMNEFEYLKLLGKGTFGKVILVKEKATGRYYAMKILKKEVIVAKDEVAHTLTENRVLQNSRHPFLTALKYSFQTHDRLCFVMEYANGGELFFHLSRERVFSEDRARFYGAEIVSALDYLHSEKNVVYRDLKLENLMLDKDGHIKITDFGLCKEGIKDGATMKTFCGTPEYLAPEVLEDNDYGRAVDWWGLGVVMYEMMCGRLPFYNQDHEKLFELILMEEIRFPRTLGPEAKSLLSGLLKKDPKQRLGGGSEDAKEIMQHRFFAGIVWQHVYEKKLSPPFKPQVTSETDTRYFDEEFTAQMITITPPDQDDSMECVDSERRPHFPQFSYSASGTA

For assay [1], the target named is SFB-TRIM21 in U251 cells (human) (UniProt P19474). Put plainly: pull-down; PFKP-depleted U251 cells with WT Flag-rPFKP or Flag-rPFKP S386A, transfected with SFB-TRIM21; with or without EGF (100 ng/ml) for the indicated times; pull-down of SFB-TRIM21.
Assay [2] concerns the target SFB-TRIM21 (Fig. 5p) (human) (UniProt P19474). Put plainly: pull-down; PFKP-depleted 293T cells (text: U251 cells) with WT Flag-rPFKP or Flag-rPFKP S386D, transfected with SFB-TRIM21; pull-down of SFB-TRIM21.
Assay [3] deals with purified recombinant GST-AKT1 (UniProt P31749). Put plainly: pull-down; GST pull-down; purified His-PFKP mixed with purified GST or GST-AKT1; glutathione agarose beads; both purified.

Where a chain is given by its changes, count along the chain named. Names and notes keep the numbering of the source. These are yes or no findings as the source states them, for the method shown. For some assays here: In cells and extracts the contact can be indirect. Some entries that bind do so weakly or less than the wild type. Where a sequence is shown, tags or fusion partners need not be part of it.

B1: WT Flag-rPFKP in U251 cells (protein, UniProt Q01813 1-784)
chain: MDADDSRAPKGSLRKFLEHLSGAGKAIGVLTSGGDAQGMNAAVRAVVRMGIYVGAKVYFIYEGYQGMVDGGSNIAEADWESVSSILQVGGTIIGSARCQAFRTREGRLKAACNLLQRGITNLCVIGGDGSLTGANLFRKEWSGLLEELARNGQIDKEAVQKYAYLNVVGMVGSIDNDFCGTDMTIGTDSALHRIIEVVDAIMTTAQSHQRTFVLEVMGRHCGYLALVSALACGADWVFLPESPPEEGWEEQMCVKLSENRARKKRLNIIIVAEGAIDTQNKPITSEKIKELVVTQLGYDTRVTILGHVQRGGTPSAFDRILASRMGVEAVIALLEATPDTPACVVSLNGNHAVRLPLMECVQMTQDVQKAMDERRFQDAVRLRGRSFAGNLNTYKRLAIKLPDDQIPKTNCNVAVINVGAPAAGMNAAVRSAVRVGIADGHRMLAIYDGFDGFAKGQIKEIGWTDVGGWTGQGGSILGTKRVLPGKYLEEIATQMRTHSINALLIIGGFEAYLGLLELSAAREKHEEFCVPMVMVPATVSNNVPGSDFSIGADTALNTITDTCDRIKQSASGTKRRVFIIETMGGYCGYLANMGGLAAGADAAYIFEEPFDIRDLQSNVEHLTEKMKTTIQRGLVLRNESCSENYTTDFIYQLYSEEGKGVFDCRKNVLGHMQQGGAPSPFDRNFGTKISARAMEWITAKLKEARGRGKKFTTDDSICVLGISKRNVIFQPVAELKKQTDFEHRIPKEQWWLKLRPLMKILAKYKASYDVSDSGQLEHVQPWSV
As for B1, the binding entry in assay [1] is recorded as “binds”.

B2: Flag-rPFKP S386D (protein, UniProt Q01813 1-784)
chain: B1 chain with S386D
B2: the binding entry in assay [2] was “binds”.

B3: WT Flag-rPFKP (Fig. 5p) (protein, UniProt Q01813 1-784)
chain: B1 chain
Regarding B3, in assay [2], the binding result is on record as “binds”.

B4: His-PFKP (enzyme, UniProt Q01813 1-784)
chain: B1 chain
With B4, the binding result in assay [3] is on record as “binds”.

B5: Flag-rPFKP S386A in U251 cells (protein, UniProt Q01813 1-784)
chain: B1 chain with S386A
Turning to B5, the binding entry in assay [1] was “binds”.
